Experimental data taken from PMC3044755.
No constants are given. Whether binding was seen depends on the method and setting. Binding seen in cells or lysates may run through a third protein. Some results given as binding are weak or reduced against the parent protein; the word gives no strength.

The chains behind the UniProt entries cited, without tags or fusion partners. Where a name states a change or a piece, a line headed by the entry shows the natural chain unless it says otherwise.
UniProt P61586: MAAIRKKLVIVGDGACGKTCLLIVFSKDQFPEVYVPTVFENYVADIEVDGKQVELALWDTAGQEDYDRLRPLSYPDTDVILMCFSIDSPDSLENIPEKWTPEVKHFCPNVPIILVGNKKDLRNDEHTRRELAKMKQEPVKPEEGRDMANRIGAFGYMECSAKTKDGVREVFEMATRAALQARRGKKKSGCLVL

Target: GST-RhoA(G17A), nucleotide-free RhoA mutant (UniProt P61586)
Assay: pull-down; 20 ug purified GST-RhoA(17A) on glutathione-sepharose beads incubated 60 min at 4°C with PNS or nuclear fractions of HEK293 cells in 20 mM Hepes pH 7.6, 150 mM NaCl, 1% Triton X-100, 5 mM MgCl2; blotted for the GEFs; cells or isolated nuclei untreated or irradiated (10 Gy); only the target purified

B1: Net1 (RhoA-specific GEF), endogenous (protein, UniProt Q7Z628 1-596)
chain: MEPELAAQKQPRPRRRSRRASGLSTEGATGPSADTSGSELDGRCSLRRGSSFTFLTPGPNWDFTLKRKRREKDDDVVSLSSLDLKEPSNKRVRPLARVTSLANLISPVRNGAVRRFGQTIQSFTLRGDHRSPASAQKFSSRSTVPTPAKRRSSALWSEMLDITMKESLTTREIRRQEAIYEMSRGEQDLIEDLKLARKAYHDPMLKLSIMSEEELTHIFGDLDSYIPLHEDLLTRIGEATKPDGTVEQIGHILVSWLPRLNAYRGYCSNQLAAKALLDQKKQDPRVQDFLQRCLESPFSRKLDLWSFLDIPRSRLVKYPLLLKEILKHTPKEHPDVQLLEDAILIIQGVLSDINLKKGESECQYYIDKLEYLDEKQRDPRIEASKVLLCHGELRSKSGHKLYIFLFQDILVLTRPVTRNERHSYQVYRQPIPVQELVLEDLQDGDVRMGGSFRGAFSNSEKAKNIFRIRFHDPSPAQSHTLQANDVFHKQQWFNCIRAAIAPFQSAGSPPELQGLPELHEECEGNHPSARKLTAQRRASTVSSVTQVEVDENAYRCGSGMQMAEDSKSLKTHQTQPGIRRARDKALSGGKRKETLV
  binding: binds
